{
  "source": "paper PMC12199019",
  "binders": {"B1": {"name": "Escherichia coli glutaredoxin 3 (EcGrx3) wild type (enzyme, UniProt P0AC62 2-83)", "chain": "ANVEIYTKETCPYCHRAKALLSSKGVSFQELPIDGNAAKREEMIKRSGRTTVPQIFIDAQHIGGCDDLYALDARGGLDPLLK"}},
  "target": "Escherichia coli glutaredoxin 3 (EcGrx3) wild type (E. coli K-12) (UniProt P0AC62)",
  "experiment": "SEC; Superdex 200 prep grade XK16 column in buffer C (50 mM Tris-HCl, 50 mM NaCl, pH 8.0), calibrated with a protein standard mix (12.4-200 kDa); both purified",
  "note": "Results are given in words; binding and its absence hold for the method and conditions named.",
  "data": [
    {"binder": "B1", "values": [
      {"measurement": "binding", "value": "no binding"}
    ]}
  ]
}
